The text below walks through data of paper PMC11492231.

Protein sequences, listed by entry. Tags and fused reporters are not part of them.
UniProt P52332: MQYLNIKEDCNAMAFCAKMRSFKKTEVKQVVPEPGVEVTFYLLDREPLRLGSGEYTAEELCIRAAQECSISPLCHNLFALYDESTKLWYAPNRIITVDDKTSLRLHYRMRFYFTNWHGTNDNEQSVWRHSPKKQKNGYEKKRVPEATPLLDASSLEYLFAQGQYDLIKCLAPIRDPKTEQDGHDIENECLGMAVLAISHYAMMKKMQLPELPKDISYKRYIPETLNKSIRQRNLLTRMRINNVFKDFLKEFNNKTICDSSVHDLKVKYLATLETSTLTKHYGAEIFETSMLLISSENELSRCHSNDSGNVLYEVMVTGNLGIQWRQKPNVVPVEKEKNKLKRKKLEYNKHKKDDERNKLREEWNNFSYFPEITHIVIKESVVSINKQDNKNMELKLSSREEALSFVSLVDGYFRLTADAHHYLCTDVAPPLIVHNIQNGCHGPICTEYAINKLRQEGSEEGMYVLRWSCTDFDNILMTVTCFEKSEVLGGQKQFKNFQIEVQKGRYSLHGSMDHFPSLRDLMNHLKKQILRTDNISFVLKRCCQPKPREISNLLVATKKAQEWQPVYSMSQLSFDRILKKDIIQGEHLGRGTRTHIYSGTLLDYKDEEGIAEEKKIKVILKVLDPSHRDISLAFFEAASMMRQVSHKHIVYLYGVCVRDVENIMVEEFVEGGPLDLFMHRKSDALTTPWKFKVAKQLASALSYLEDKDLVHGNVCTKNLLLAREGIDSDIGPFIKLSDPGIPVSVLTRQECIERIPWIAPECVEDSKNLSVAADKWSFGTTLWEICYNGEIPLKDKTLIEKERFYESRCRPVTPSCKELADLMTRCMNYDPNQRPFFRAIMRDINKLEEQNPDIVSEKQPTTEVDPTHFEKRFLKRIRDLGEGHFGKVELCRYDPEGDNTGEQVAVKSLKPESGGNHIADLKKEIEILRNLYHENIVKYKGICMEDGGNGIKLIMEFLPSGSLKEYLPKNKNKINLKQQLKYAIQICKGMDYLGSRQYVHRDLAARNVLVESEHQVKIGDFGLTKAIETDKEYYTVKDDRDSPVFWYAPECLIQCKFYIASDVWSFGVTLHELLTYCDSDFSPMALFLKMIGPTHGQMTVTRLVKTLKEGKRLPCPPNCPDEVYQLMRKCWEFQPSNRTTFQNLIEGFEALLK

The target in this assay is T1, Latexin (LXN), endogenous in murine BMDMs (mouse (endogenous in BMDMs)) (UniProt P70202).
T1 sequence: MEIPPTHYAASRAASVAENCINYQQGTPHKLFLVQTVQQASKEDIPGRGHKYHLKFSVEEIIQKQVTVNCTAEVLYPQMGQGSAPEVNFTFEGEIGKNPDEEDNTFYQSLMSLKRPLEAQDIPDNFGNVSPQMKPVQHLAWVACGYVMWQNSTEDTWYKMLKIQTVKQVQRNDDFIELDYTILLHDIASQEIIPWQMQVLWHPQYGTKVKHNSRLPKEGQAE
As to the kind of experiment: co-IP; immunoprecipitation of endogenous LXN and JAK1 in murine BMDMs.

Results are given in words; binding and its absence hold for the method and conditions named. In cells and extracts the contact can be indirect. Some binding calls cover weakened binding; strength is not graded here.

With “JAK1, endogenous in murine BMDMs (from UniProt P52332 1-1153)”, the binding result is on record as “binds”.
